Experimental data from the supplement of paper PMC10849652.
Some of the results follow.

Protein sequences, listed by entry. Tags and fused reporters are not part of them. Lines headed by an entry give the natural chain unless they say otherwise; changes in a name come on top.
UniProt P31946: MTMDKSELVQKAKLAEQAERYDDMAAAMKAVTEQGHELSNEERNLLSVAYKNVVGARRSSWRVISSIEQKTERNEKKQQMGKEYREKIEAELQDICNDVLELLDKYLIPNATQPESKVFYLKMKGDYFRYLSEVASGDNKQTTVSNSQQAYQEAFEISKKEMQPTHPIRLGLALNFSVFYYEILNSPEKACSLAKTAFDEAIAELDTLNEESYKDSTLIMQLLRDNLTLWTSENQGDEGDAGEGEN
UniProt Q86WB0: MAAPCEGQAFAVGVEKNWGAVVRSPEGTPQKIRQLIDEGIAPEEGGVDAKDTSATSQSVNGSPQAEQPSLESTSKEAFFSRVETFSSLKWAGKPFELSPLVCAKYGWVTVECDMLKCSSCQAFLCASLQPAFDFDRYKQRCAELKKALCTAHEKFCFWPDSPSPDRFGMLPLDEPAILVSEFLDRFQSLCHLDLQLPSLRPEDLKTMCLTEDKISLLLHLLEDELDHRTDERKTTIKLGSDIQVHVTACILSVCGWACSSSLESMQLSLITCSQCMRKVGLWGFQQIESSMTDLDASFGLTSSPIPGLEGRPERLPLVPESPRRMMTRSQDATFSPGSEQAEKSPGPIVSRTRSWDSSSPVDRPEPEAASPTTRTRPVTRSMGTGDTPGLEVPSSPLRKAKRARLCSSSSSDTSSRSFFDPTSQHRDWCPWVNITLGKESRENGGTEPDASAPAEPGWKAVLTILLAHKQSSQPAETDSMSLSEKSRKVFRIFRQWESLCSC
UniProt P67809, whole entry, looked up: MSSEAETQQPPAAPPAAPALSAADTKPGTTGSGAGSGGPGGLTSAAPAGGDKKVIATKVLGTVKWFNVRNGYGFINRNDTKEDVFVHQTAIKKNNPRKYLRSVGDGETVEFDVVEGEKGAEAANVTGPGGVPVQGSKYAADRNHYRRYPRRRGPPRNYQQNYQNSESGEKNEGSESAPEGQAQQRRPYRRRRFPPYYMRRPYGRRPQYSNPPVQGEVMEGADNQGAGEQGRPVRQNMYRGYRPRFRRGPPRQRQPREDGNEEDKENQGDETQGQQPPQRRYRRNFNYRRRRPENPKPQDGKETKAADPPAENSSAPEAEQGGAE
UniProt P49750: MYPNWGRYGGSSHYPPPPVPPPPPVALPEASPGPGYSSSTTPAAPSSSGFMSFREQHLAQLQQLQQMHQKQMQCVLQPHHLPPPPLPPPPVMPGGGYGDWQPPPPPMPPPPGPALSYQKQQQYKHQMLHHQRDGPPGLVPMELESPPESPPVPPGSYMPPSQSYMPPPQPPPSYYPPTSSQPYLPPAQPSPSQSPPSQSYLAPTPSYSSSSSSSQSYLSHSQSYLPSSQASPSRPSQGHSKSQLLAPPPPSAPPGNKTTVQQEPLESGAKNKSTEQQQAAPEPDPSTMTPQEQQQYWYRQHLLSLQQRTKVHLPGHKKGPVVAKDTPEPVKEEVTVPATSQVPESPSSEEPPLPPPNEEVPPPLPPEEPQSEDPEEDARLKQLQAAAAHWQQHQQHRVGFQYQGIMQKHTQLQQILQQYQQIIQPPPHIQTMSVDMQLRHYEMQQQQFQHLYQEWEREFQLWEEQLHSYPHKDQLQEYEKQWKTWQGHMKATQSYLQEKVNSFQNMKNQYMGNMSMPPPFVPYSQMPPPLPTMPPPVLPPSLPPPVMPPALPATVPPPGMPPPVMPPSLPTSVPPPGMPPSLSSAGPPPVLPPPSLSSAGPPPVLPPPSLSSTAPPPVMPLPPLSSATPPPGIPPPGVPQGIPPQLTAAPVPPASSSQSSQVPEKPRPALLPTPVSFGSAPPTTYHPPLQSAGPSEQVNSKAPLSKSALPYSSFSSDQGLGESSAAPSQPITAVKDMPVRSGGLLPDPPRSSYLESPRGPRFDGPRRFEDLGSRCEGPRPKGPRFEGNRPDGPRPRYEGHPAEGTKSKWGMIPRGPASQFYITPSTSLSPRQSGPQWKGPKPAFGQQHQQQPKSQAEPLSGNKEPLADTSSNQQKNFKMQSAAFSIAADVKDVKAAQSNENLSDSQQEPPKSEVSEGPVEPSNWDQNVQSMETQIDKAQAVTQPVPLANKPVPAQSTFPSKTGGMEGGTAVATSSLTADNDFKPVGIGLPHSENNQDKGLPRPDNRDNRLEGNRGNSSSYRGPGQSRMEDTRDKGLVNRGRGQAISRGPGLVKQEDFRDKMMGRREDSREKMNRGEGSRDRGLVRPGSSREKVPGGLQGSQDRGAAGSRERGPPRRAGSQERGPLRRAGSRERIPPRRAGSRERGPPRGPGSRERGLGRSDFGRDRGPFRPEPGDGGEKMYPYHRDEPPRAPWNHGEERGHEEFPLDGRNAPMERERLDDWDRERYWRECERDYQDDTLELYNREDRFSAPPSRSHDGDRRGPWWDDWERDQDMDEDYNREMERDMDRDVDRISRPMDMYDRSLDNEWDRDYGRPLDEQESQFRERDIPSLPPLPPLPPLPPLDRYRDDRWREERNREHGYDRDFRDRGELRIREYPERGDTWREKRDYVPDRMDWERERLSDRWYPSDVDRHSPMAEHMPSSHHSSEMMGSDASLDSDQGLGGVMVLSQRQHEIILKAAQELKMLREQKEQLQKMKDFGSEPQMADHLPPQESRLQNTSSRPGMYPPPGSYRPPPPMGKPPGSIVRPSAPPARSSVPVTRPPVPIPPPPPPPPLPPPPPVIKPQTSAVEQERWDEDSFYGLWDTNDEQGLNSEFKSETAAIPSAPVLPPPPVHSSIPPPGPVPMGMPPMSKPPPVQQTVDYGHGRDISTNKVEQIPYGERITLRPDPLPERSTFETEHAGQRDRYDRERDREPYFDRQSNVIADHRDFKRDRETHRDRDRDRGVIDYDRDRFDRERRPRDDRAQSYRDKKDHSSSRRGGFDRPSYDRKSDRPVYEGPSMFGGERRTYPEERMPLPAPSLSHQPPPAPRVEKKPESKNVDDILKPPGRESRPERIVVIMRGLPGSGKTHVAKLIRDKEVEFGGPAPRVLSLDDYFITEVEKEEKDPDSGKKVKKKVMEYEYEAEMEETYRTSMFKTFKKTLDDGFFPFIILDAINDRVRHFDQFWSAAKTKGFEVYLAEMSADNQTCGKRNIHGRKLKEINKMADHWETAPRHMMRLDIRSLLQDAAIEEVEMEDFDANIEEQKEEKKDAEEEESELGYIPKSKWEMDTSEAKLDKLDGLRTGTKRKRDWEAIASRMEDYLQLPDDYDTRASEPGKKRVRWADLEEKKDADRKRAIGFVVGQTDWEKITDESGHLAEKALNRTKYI
UniProt Q8N5P1: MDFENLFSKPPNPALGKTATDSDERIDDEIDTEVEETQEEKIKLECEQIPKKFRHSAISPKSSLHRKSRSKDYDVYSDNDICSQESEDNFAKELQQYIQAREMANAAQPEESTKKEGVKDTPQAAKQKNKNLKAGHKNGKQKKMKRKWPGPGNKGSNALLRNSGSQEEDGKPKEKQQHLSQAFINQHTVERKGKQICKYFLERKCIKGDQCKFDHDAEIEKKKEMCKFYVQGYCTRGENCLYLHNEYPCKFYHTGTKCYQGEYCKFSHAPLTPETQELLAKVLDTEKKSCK
UniProt Q5BJH7: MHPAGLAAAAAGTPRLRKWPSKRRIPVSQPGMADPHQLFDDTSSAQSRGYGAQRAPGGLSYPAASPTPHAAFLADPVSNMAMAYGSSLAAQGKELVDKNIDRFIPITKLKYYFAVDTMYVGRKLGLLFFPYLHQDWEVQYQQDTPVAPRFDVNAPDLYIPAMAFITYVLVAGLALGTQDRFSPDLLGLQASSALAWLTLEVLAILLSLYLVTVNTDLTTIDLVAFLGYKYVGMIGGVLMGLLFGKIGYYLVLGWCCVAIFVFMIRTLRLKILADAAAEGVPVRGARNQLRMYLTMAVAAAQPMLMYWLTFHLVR
UniProt Q96JP5: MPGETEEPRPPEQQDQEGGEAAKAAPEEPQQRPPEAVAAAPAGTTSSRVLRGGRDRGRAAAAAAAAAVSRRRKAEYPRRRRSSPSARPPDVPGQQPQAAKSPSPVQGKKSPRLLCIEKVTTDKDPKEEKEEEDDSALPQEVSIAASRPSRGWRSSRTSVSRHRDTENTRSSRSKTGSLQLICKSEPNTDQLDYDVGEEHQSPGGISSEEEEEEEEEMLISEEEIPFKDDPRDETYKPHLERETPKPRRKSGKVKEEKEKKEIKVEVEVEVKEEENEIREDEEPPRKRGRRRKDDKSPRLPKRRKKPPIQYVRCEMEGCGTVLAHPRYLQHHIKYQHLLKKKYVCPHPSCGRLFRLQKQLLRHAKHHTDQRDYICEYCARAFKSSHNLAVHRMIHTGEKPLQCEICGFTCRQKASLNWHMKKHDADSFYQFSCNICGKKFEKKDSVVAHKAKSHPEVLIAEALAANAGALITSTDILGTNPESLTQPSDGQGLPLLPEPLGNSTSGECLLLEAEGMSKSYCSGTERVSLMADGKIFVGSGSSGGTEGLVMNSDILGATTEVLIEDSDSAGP
UniProt Q9C0B5: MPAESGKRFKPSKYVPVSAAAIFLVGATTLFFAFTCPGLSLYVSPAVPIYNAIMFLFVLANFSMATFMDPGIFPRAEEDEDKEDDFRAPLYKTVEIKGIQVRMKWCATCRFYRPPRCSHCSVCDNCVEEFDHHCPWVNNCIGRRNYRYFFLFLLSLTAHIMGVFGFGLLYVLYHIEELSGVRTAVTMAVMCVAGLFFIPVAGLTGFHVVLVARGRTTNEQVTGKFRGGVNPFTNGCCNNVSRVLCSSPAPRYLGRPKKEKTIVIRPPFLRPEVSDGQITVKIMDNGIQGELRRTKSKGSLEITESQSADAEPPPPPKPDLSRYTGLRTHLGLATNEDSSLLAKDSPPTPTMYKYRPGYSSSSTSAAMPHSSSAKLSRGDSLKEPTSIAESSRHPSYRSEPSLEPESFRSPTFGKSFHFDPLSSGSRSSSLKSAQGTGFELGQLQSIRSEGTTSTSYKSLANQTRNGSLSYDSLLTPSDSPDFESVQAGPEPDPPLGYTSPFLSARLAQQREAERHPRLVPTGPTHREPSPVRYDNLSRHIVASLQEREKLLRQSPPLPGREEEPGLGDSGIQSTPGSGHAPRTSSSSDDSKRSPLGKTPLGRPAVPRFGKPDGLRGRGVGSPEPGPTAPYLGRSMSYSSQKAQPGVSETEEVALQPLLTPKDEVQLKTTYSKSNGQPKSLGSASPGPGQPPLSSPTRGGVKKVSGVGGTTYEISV

How the values were obtained:
Experiment in all cases: log2 fold change, soluble protein after heating vs DMSO (PISA); higher = thermal stabilisation; K562 cells, 10 uM, 30 min; active = over 0.2 and 3.5 SD of the protein, either way, in both replicates (recomputed)
[1] = compound: CC1=C(C=C(C=C1)NC(=O)C2=CC(=CC=C2)C(C)(C)C#N)NC3=CC4=C(C=C3)N=CN(C4=O)C
Procedure, shortened: (§1)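 Values are thermal stability changes relative to control samples and are taken from duplicates. They are stated as log2 fold changes. Before quantification by TMTpro 16plex LC-MS/MS with equalised channel sums, K562 cells at 2×10^6 cells/mL were treated with 10 μM compound for 30 min, heated in aliquots for 3 min across 48°C-58°C, pooled, extracted in PBS with 0.5% NP-40 at 4°C, and centrifuged at 21,000xg for 90 min to give the soluble supernatant.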

[2] = compound: CC1=C(C=C(C=C1)NC(=O)C2=CC(=CC=C2)N(C)C)NC(=O)C3=CC=C(C=C3)O
Procedure, shortened: as §1

[3] = compound: CC1=CC=C(C=C1)SC2=C3C=C(SC3=CN=C2)C(=O)N
Procedure, shortened: as §1

[4] = compound: CC1=NC(=CC=C1)C2=C(N=C(N2)C(C)(C)C)C3=CC4=NC=CN=C4C=C3
Procedure, shortened: as §1

[5] = compound: CCCCN(Cc1ccc(C(=O)NO)cc1)C(=O)Nc1ccccc1 [Nexturastat A]
Procedure, shortened: as §1

[6] = compound: CCCS(=O)(=O)Nc1ccc(F)c(C(=O)c2c[nH]c3ncc(-c4ccc(Cl)cc4)cc23)c1F [vemurafenib]
Procedure, shortened: as §1

[7] = compound: CCCS(=O)(=O)Nc1ccc(F)c(C(=O)c2c[nH]c3ncc(Cl)cc23)c1F
Procedure, shortened: as §1

[8] = compound: CCCc1cc(C)[nH]c(=O)c1CNC(=O)c1cc(-c2ccnc(N3CCN(C)CC3)c2)cc2c1cnn2C(C)C
Procedure, shortened: as §1

[9] = compound: CCN(CC)Cc1ccc2cc(COC(=O)Nc3ccc(C(=O)NO)cc3)ccc2c1 [givinostat]
Procedure, shortened: as §1

[10] = compound: CCN(CCCOc1ccc2c(Nc3cc(CC(=O)Nc4cccc(F)c4)[nH]n3)ncnc2c1)CCOP(=O)(O)O [barasertib]
Procedure, shortened: as §1

[11] = compound: CC[C@@H]1C(=O)N(C)c2cnc(Nc3ccc(C(=O)NC4CCN(C)CC4)cc3OC)nc2N1C1CCCC1
Procedure, shortened: as §1

[12] = compound: CC[C@@H]1C(=O)N(C)c2cnc(Nc3ccc(C(=O)N[C@H]4CC[C@H](N5CCN(CC6CC6)CC5)CC4)cc3OC)nc2N1C(C)C [volasertib]
Procedure, shortened: as §1

[13] = compound: CC[C@H](C)N1C=C(C2=C(C=C(C=C21)C3=CN=C(C=C3)N4CCNCC4)C(=O)NCC5=C(C=C(NC5=O)C)C)C
Procedure, shortened: as §1

[14] = compound: CC[C@H](C)[C@@H](C(=O)N[C@@H]([C@@H](C)O)C(=O)N[C@@H](CC(C)C)C(=O)[C@]1(CO1)C)NC(=O)[C@H]([C@@H](C)CC)N(C)C(=O)C [epoxomicin]
Procedure, shortened: as §1

[15] = compound: CCn1cc(-c2ccnc3[nH]c(-c4cccc(CN(C)C)c4)cc23)c(-c2ccc(NC(=O)N(C)C)cc2)n1
Procedure, shortened: as §1

[16] = compound: CN(C)CC(=O)Nc1ccc2[nH]c(=O)c3ccccc3c2c1
Procedure, shortened: as §1

[17] = compound: CN1C2=C(C3=C1C(=O)N(N=C3)CC4=CC(=CC=C4)N)SC(=C2)S(=O)C
Procedure, shortened: as §1

[18] = compound: CN1CCC(CNc2ccc3ncc(-c4cccc(OC(F)(F)F)c4)n3n2)CC1
Procedure, shortened: as §1

[19] = compound: CCn1c(C(=O)N(C2CC2)C2CC2)cc2c3c(ncn3C)c(Nc3cc(C)n(C)n3)nc21
Procedure, shortened: as §1

[20] = compound: CN(CCOC1=CC=C(C=C1)C[C@H]2C(=O)NC(=O)S2)C3=CC=CC=N3 (racemic) [rosiglitazone]
Procedure, shortened: as §1

Target: YWHAB (UniProt P31946)
- log2 fold change [1]: inactive: 0.016
- log2 fold change [2]: inactive: -0.008
- log2 fold change [3]: inactive: -0.033
- log2 fold change [4]: inactive: 0.021
- log2 fold change [5]: inactive: -0.048
- log2 fold change [6]: inactive: 0.021
- log2 fold change [7]: inactive: 0.031
- log2 fold change [8]: inactive: -0.031
- log2 fold change [9]: inactive: -0.026
- log2 fold change [10]: inactive: 0.003
- log2 fold change [11]: inactive: -0.055
- log2 fold change [12]: inactive: 0.024
- log2 fold change [13]: inactive: 0.009
- log2 fold change [14]: inactive: 0.018
- log2 fold change [15]: inactive: 0.014
- log2 fold change [16]: inactive: -0.033
- log2 fold change [17]: inactive: -0.068
- log2 fold change [18]: inactive: -0.042

Target: ZC3HC1 (UniProt Q86WB0)
- log2 fold change [1]: inactive: 0.011
- log2 fold change [2]: inactive: -0.209
- log2 fold change [3]: inactive: 0.053
- log2 fold change [4]: inactive: 0.119
- log2 fold change [5]: inactive: -0.106
- log2 fold change [6]: inactive: 0.09
- log2 fold change [7]: inactive: 0.189
- log2 fold change [8]: inactive: 0.029
- log2 fold change [9]: inactive: 0.031
- log2 fold change [10]: inactive: 0.108
- log2 fold change [11]: inactive: -0.163
- log2 fold change [12]: active: -0.579
- log2 fold change [13]: inactive: 0.164
- log2 fold change [14]: inactive: 0.1
- log2 fold change [15]: inactive: -0.125
- log2 fold change [16]: inactive: 0.089
- log2 fold change [17]: inactive: -0.135
- log2 fold change [18]: active: -0.402

Target: YBX1 (UniProt P67809)
- log2 fold change [1]: inactive: 0.041
- log2 fold change [2]: inactive: 0.011
- log2 fold change [3]: inactive: -0.124
- log2 fold change [4]: inactive: -0.11
- log2 fold change [5]: inactive: 0.231
- log2 fold change [6]: inactive: -0.12
- log2 fold change [7]: inactive: -0.137
- log2 fold change [8]: inactive: 0.055
- log2 fold change [9]: inactive: -0.056
- log2 fold change [10]: inactive: -0.127
- log2 fold change [11]: inactive: 0.262
- log2 fold change [12]: inactive: 0.508
- log2 fold change [13]: inactive: -0.063
- log2 fold change [14]: inactive: -0.191
- log2 fold change [15]: inactive: 0.249
- log2 fold change [16]: inactive: -0.134
- log2 fold change [17]: inactive: 0.183
- log2 fold change [18]: inactive: 0.348

Target: YLPM1 (UniProt P49750)
- log2 fold change [1]: inactive: -0.095
- log2 fold change [2]: inactive: -0.023
- log2 fold change [3]: inactive: -0.008
- log2 fold change [4]: inactive: 0.043
- log2 fold change [5]: inactive: 0.046
- log2 fold change [6]: inactive: 0.017
- log2 fold change [7]: inactive: 0.047
- log2 fold change [8]: inactive: 0.083
- log2 fold change [9]: inactive: 0.061
- log2 fold change [10]: inactive: 0.03
- log2 fold change [11]: inactive: -0.016
- log2 fold change [12]: active: -0.265
- log2 fold change [13]: inactive: 0.067
- log2 fold change [14]: inactive: 0.059
- log2 fold change [15]: inactive: -0.012
- log2 fold change [16]: inactive: -0.037
- log2 fold change [17]: inactive: -0.057
- log2 fold change [18]: inactive: -0.113

Target: ZC3H8 (UniProt Q8N5P1)
- log2 fold change [1]: inactive: -0.021
- log2 fold change [2]: inactive: 0.03
- log2 fold change [3]: inactive: -0.115
- log2 fold change [4]: inactive: -0.176
- log2 fold change [5]: inactive: 0.106
- log2 fold change [6]: inactive: -0.071
- log2 fold change [7]: inactive: -0.138
- log2 fold change [8]: inactive: -0.027
- log2 fold change [9]: inactive: -0.106
- log2 fold change [10]: inactive: -0.075
- log2 fold change [11]: inactive: 0.181
- log2 fold change [12]: inactive: 0.207
- log2 fold change [13]: inactive: -0.012
- log2 fold change [14]: inactive: -0.107
- log2 fold change [15]: inactive: 0.092
- log2 fold change [16]: inactive: -0.047
- log2 fold change [17]: inactive: 0.127
- log2 fold change [18]: active: 0.397

Target: YIF1B (UniProt Q5BJH7)
- log2 fold change [1]: inactive: 0
- log2 fold change [2]: inactive: 0.051
- log2 fold change [3]: inactive: 0.05
- log2 fold change [4]: inactive: 0.023
- log2 fold change [5]: inactive: -0.114
- log2 fold change [6]: inactive: -0.069
- log2 fold change [7]: inactive: 0.031
- log2 fold change [8]: inactive: -0.114
- log2 fold change [9]: inactive: -0.021
- log2 fold change [10]: inactive: -0.005
- log2 fold change [11]: inactive: -0.028
- log2 fold change [12]: inactive: -0.013
- log2 fold change [13]: inactive: -0.012
- log2 fold change [14]: inactive: -0.022
- log2 fold change [19]: inactive: 0.024
- log2 fold change [15]: inactive: -0.006
- log2 fold change [16]: inactive: 0.076
- log2 fold change [20]: inactive: 0.041
- log2 fold change [17]: inactive: -0.058
- log2 fold change [18]: inactive: 0.1

Target: ZFP91 (UniProt Q96JP5)
- log2 fold change [1]: inactive: 0.017
- log2 fold change [2]: inactive: 0.036
- log2 fold change [3]: inactive: -0.025
- log2 fold change [4]: inactive: -0.069
- log2 fold change [5]: inactive: 0.079
- log2 fold change [6]: inactive: -0.071
- log2 fold change [7]: inactive: -0.041
- log2 fold change [8]: inactive: 0.074
- log2 fold change [9]: inactive: 0.009
- log2 fold change [10]: inactive: -0.105
- log2 fold change [11]: inactive: 0.104
- log2 fold change [12]: inactive: 0.016
- log2 fold change [13]: inactive: 0.04
- log2 fold change [14]: inactive: -0.045
- log2 fold change [15]: inactive: 0.07
- log2 fold change [16]: inactive: -0.074
- log2 fold change [17]: inactive: 0.099
- log2 fold change [18]: inactive: 0.171

Target: ZDHHC5 (UniProt Q9C0B5)
- log2 fold change [1]: inactive: 0.048
- log2 fold change [2]: inactive: -0.007
- log2 fold change [3]: inactive: -0.011
- log2 fold change [4]: inactive: -0.013
- log2 fold change [5]: inactive: -0.001
- log2 fold change [6]: inactive: -0.021
- log2 fold change [7]: inactive: -0.009
- log2 fold change [8]: inactive: 0.095
- log2 fold change [9]: inactive: -0.001
- log2 fold change [10]: inactive: -0.001
- log2 fold change [11]: inactive: 0.035
- log2 fold change [12]: inactive: 0.093
- log2 fold change [13]: inactive: -0.052
- log2 fold change [14]: inactive: -0.083
- log2 fold change [15]: inactive: -0.002
- log2 fold change [16]: inactive: -0.032
- log2 fold change [17]: inactive: -0.049
- log2 fold change [18]: active: 0.31
